Measurements reported in PubChem BioAssay AID1259425 (University of Nebraska Medical Center, 2018).

Aim: 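Find knockdowns that reproduce the gene expression pattern seen when KSR1 is lost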 (primary screen)
Cells: HCT116 human colon cancer cells
Knock-down reagent: siRNA pool against human genes, 50 nM siRNA
Detection: 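mRNA of six signature genes measured together by branched-DNA assay after 50 nM siRNA pool, blank removed, divided by geometric mean of two housekeeping genes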
Reading the numbers: BNIP3L mRNA: higher = more BNIP3L transcript after knockdown; NDRG1 mRNA: higher = more NDRG1 transcript after knockdown; BNIP3 mRNA: higher = more BNIP3 transcript after knockdown; ALDOC mRNA: higher = more ALDOC transcript after knockdown; ACSL5 mRNA: higher = more ACSL5 transcript after knockdown
This is one part, drawn at random, of about 14,000 reagents tested. Some reagents were tested in more than one well and are listed for each. Reagent sequences are not shown. Not stated in the record: the time to read-out.

gene symbol | BNIP3L mRNA, set 1 | NDRG1 mRNA, set 1 | BNIP3 mRNA, set 1 | ALDOC mRNA, set 1 | ACSL5 mRNA, set 1
ABLIM1 | 0.112 | 0.143 | 0.278 | 0.0477 | 0.207
ZNF644 | 0.126 | 0.201 | 0.426 | 0.0275 | 0.167
ZNF644 | 0.202 | 0.141 | 0.258 | 0.0276 | 0.293
NUBP1 | 0.0741 | 0.152 | 0.237 | 0.0111 | 0.179
FMO1 | 0.0866 | 0.124 | 0.236 | 0.0315 | 0.0947
PLEKHA6 | 0.0124 | 0.217 | 0.286 | 0.0256 | 0.213
PTPRE | 0.103 | 0.131 | 0.148 | 0.0163 | 0.204
FYB1 | 0.0637 | 0.262 | 0.221 | 0.0134 | 0.187
MS4A3 | 0.0624 | 0.143 | 0.161 | 0.0251 | 0.182
MAD2L1 | 0.0766 | 0.643 | 0.343 | 0.0199 | 0.286
TOPBP1 | 0.111 | 0.134 | 0.269 | 0.0393 | 0.115
RPL11 | 0.105 | 0.119 | 0.338 | 0.0332 | 0.105
PRDM5 | 0.0566 | 0.106 | 0.26 | 0.0109 | 0.0984
HAT1 | 0.0645 | 0.117 | 0.29 | 0.0189 | 0.112
F3 | 0.0677 | 0.102 | 0.341 | 0.0124 | 0.196
PGR | 0.0874 | 0.208 | 0.142 | 0.01 | 0.116
MMP13 | 0.107 | 0.274 | 0.276 | 0.039 | 0.111
NIPA2 | 0.0436 | 0.106 | 0.268 | 0.0217 | 0.208
ZNF302 | 0.0856 | 0.131 | 0.469 | 0.0375 | 0.21
PNMA2 | 0.127 | 0.0817 | 0.304 | 0.0173 | 0.258
NOTCH1 | 0.126 | 0.224 | 0.226 | 0.0208 | 0.0508
CYCS | 0.0927 | 0.192 | 0.383 | 0.0381 | 0.112
SPIDR | 0.0915 | 0.134 | 0.392 | 0.0144 | 0.205
TMC8 | 0.155 | 0.27 | 0.225 | 0.0767 | 0.21
LARGE1 | 0.0942 | 0.18 | 0.271 | 0.0217 | 0.146
SLC17A2 | 0.1 | 0.275 | 0.266 | 0.0158 | 0.21
SCN9A | 0.15 | 0.1 | 0.186 | 0.0126 | 0.0853
NRDC | 0.139 | 0.274 | 0.324 | 0.0409 | 0.143
SPIRE2 | 0.0963 | 0.166 | 0.254 | 0.0192 | 0.138
PFDN1 | 0.176 | 0.13 | 0.342 | 0.0317 | 0.19
H6PD | 0.0701 | 0.231 | 0.147 | 0.0442 | 0.164
CAMLG | 0.174 | 0.0858 | 0.328 | 0.0457 | 0.189
PLEKHM1 | 0.151 | 0.501 | 0.363 | 0.0343 | 0.382
FHL3 | 0.113 | 0.336 | 0.305 | 0.0668 | 0.157
ERCC5 | 0.0734 | 0.18 | 0.232 | 0.0204 | 0.123
ADTRP | 0.0988 | 0.311 | 0.369 | 0.0295 | 0.337
KCTD9 | 0.111 | 0.168 | 0.304 | 0.0179 | 0.201
ATF6 | 0.0849 | 0.225 | 0.311 | -0.00319 | 0.295
MECP2 | 0.0364 | 0.209 | 0.225 | 0.0194 | 0.29
MAIP1 | 0.153 | 0.11 | 0.406 | 0.0814 | 0.174
ENAH | 0.121 | 0.147 | 0.616 | 0.0394 | 0.186
TGFBR2 | 0.128 | 0.142 | 0.432 | 0.0174 | 0.384
AFP | 0.0942 | 0.288 | 0.288 | 0.0112 | 0.146
VIL1 | 0.0962 | 0.0788 | 0.33 | 0.00551 | 0.138
NEUROG1 | 0.103 | 0.255 | 0.391 | 0.0473 | 0.203
HIGD1A | 0.118 | 0.201 | 0.227 | 0.0171 | 0.246
TKT | 0.0481 | 0.236 | 0.353 | 0.0671 | 0.0467
LINC01749 | 0.0676 | 0.241 | 0.217 | 0.0304 | 0.174
RRAD | 0.171 | 0.24 | 0.335 | 0.028 | 0.108
MDFIC | 0.272 | 0.251 | 0.268 | 0.0656 | 0.131

Individual results from above.
SPIRE2, BNIP3L mRNA, set 1: 0.0963
For “ACSL5 mRNA, set 1”, NEUROG1 is entered as 0.203
SPIDR, BNIP3 mRNA, set 1: 0.392
Value for H6PD under “BNIP3 mRNA, set 1”: 0.147
SLC17A2, BNIP3L mRNA, set 1: 0.1
PRDM5, NDRG1 mRNA, set 1 = 0.106
